Data taken from PubChem BioAssay AID504444 (National Center for Advancing Translational Sciences (NCATS), 2011).
Out of some 360,000 compounds screened, about 7,500 (2.1%) were called active. The inconclusive results got no clear call from the source; some entries with a clear call stand among them for comparison. Calls follow the shape of the dose curve; as a rule, active = well fitted inhibition curve with a large enough effect; inconclusive = small, poorly fitted or top-dose-only effect, or effect the other way; inactive = flat fitted curve, though single readings scatter. Potencies beside an inconclusive call are fits to weak or partial responses and may not hold up.
Potency is read from the fitted curve at half-maximal effect.

Assay: Nrf2 qHTS screen for inhibitors; also: nearly all actives have a fitted effect of over 60% in size
Details: A549 ARE-Fluc reporter, luciferase luminescence, 18-24 h; series mostly up to 46 µM
Method in brief: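 Reporter: ARE-Fluc in A549. Exposure: 18-24 h, 37 °C, 5% CO2, 5% FBS OPTI-MEM. Readouts: fluorescent cytotoxicity (CellTiter-Fluor), then luminescent Nrf2 signal after BugLite.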
For Cc1ccc(CNc2ncnc3ccc(-c4ccc5c(c4)OCO5)cc23)o1, the Potency was “inactive”. With CCNc1nc2c(c(=O)n(C)c(=O)n2C)n1CCCc1ccccc1 the Potency was inconclusive: 25.9 µM [falling, single point]. For CN(CC(=O)N1CCN(Cc2ccccc2)CC1)C(=O)Cc1ccc(Cl)c(Cl)c1, the Potency was inconclusive: 7.31 µM [falling, partial curve]. In the case of Cc1ccc(-c2cc3nc4c(c(=O)n3[nH]2)CCCC4)cc1, the Potency is reported as “inactive”. For COc1cccc(/C=C/C(=O)c2ccc[nH]2)c1, the Potency was inconclusive: 2.91 µM [activator, full curve, poor fit]. For Cc1ccc(S(=O)(=O)N(Cc2ccc(Cl)cc2)c2ccccc2C(=O)NCc2ccco2)cc1, the Potency was inconclusive: 16.4 µM [falling, single point]. With Cc1ccc(CNS(=O)(=O)c2ccc3c(c2)CC(C)N3C(=O)C2CCC2)cc1 (configuration not stated) the Potency was inconclusive: 18.4 µM [falling, single point]. For COC(=O)c1ccc(NC(=O)CN(C2CCCCC2)S(C)(=O)=O)cc1, the Potency was inconclusive: 25.9 µM [activator, partial curve, poor fit]. With CNC(=O)c1cc(S(=O)(=O)NCc2ccncc2)ccc1OC the Potency was inconclusive: 18.4 µM [falling, single point]. With O=C(CCCN1C(=O)/C(=C/c2ccccc2Cl)SC1=S)NNC(=O)c1ccccc1 the Potency was active: 20.6 µM. With COC(=O)c1c(-c2cccs2)csc1NC(=O)c1ccc(C)cc1 the Potency was inconclusive: 2.06 µM [activator, full curve]. With CCOc1ccc(CNC(=O)C2CCN(C(=O)N3CC(CC)Oc4ccc(C)cc43)CC2)cc1OC (configuration not stated) the Potency was “inactive”. For CCCN(CC(=O)Nc1ccccc1C)C(=O)c1ccc(N2CCCC2=O)cc1, the Potency was “inactive”. For CCOC(=O)CSc1nc2sc3c(c2c(=O)n1-c1ccc(OC)cc1)CC(C(C)C)OC3 (configuration not stated), the Potency was “inactive”. With CC1CCN(C(=O)c2ccc(CS(=O)(=O)Cc3ccccc3)cc2)CC1 the Potency was inconclusive: 20.6 µM [falling, single point]. For Cc1ccccc1N1CC(c2nc3ccccc3n2Cc2ccc(Br)cc2)CC1=O (configuration not stated), the Potency was “inactive”. With Cc1cccc(-c2nnc(SCc3ccc(C#N)cc3)n2Cc2ccco2)c1 the Potency was inconclusive: 23.1 µM [falling, partial curve, poor fit]. In the case of CCc1c(C)nc2ncnn2c1N1CCC(C(=O)NCc2cccs2)CC1, the Potency is reported as active: 18.4 µM. For O=C(NCc1ccccc1)C1=C[C@@H](c2csc3ccccc23)C[C@@H](OCc2ccc(CO)cc2)O1, the Potency was active: 6.51 µM. With S=C(NCc1ccco1)N1CCN(c2cccc(Cl)c2)CC1 the Potency was active: 14.6 µM. With CCCOc1ccc(CNC(=O)C2CCN(C(=O)c3sccc3-n3cccc3)CC2)cc1 the Potency was inconclusive: 29.1 µM [falling, single point]. With CN1CCN(c2nc(Nc3cccc(C(F)(F)F)c3)nc(N3CCOCC3)n2)CC1 the Potency was inconclusive: 0.326 µM [falling, partial curve, poor fit]. With O=C(NC(Cc1c[nH]c2ccccc12)C(=O)Nc1ccc(F)c([N+](=O)[O-])c1)c1cccs1 (configuration not stated) the Potency was inconclusive: 23.1 µM [activator, partial curve]. For COc1ccc(C2CC(C(F)(F)F)n3nc(C(=O)NCCCn4ccnc4)cc3N2)cc1OC (configuration not stated), the Potency was inconclusive: 29.1 µM [activator, single point]. With O=C(Nc1ccsc1C(=O)N1CCCCCC1)c1ccccc1 the Potency was inconclusive: 1.16 µM [falling, partial curve, poor fit]. With COc1cc(C(=O)OCCc2cc3ccccc3c(=O)o2)cc(OC)c1OC the Potency was inconclusive: 18.4 µM [falling, partial curve, poor fit]. For Clc1ccc(C2=NN=C3COc4ccccc4N3C2)cc1, the Potency was inconclusive: 5.17 µM [activator, full curve, poor fit]. In the case of COCc1cc(C)nc(N/N=C/c2ccc(-c3ccc(Cl)cc3[N+](=O)[O-])o2)c1C#N, the Potency is reported as inconclusive: 0.206 µM [activator, partial curve, poor fit]. For Cn1cnnc1SCc1ccc(C(=O)N/N=C(/CCC(=O)O)c2ccc(C(C)(C)C)cc2)cc1, the Potency was “inactive”. For Cc1c(Cl)cccc1-n1nc(C)c2c(C)cc(=O)n(CC(=O)N3CCCc4ccccc43)c21, the Potency was inconclusive: 29.1 µM [falling, single point]. With CCOC(=O)c1ccc(-c2ccc(/C=N/NC(=O)CN(c3ccccc3Cl)S(C)(=O)=O)o2)cc1 the Potency was inconclusive: 23.1 µM [activator, single point]. In the case of COc1c(OC)c(O)c2c(=O)c(O)c(-c3ccccc3)oc2c1OC, the Potency is reported as “inactive”. For Cc1nc(Nc2nc(-c3ccccc3)cc(=O)[nH]2)nc2ccccc12, the Potency was inconclusive: 29.1 µM [activator, single point]. For O=C1c2cccnc2C(Nc2ccccc2)N1Cc1ccco1 (configuration not stated), the Potency was inconclusive: 29.1 µM [activator, single point]. In the case of Cc1c(Br)c([N+](=O)[O-])nn1CC(=O)Nc1c(C)n(C)n(-c2ccccc2)c1=O, the Potency is reported as “inactive”. For COc1ccc(/C=C/C(=O)c2ccncc2)c2ccccc12, the Potency was inconclusive: 29.1 µM [falling, single point]. For O=C(Nc1cc(S(=O)(=O)N2CCCCC2)ccc1N1CCCCC1)C1CC1, the Potency was inconclusive: 18.4 µM [falling, single point]. In the case of O=C(COc1cccnc1[N+](=O)[O-])N1CCc2ccccc21, the Potency is reported as inconclusive: 18.4 µM [activator, single point]. For Cc1c(Cl)c([N+](=O)[O-])nn1CCCC(=O)NCCc1ccccc1, the Potency was inconclusive: 11.6 µM [activator, partial curve]. For Cc1ccc2c(c1)C1CN(C)CCC1N2C(=S)Nc1ccc(OC(F)F)cc1 (configuration not stated), the Potency was inconclusive: 29.1 µM [falling, single point]. For COc1cccc(-c2nnc(NC(=O)c3ccco3)s2)c1, the Potency was inconclusive: 29.1 µM [activator, single point]. In the case of CN1CC(c2ccccn2)C2(SC(=S)N(Cc3ccccc3)C2=O)C12C(=O)Nc1ccccc12 (configuration not stated), the Potency is reported as active: 23.1 µM.
